This passage reports binding results from patent US20040002124A1.

These are yes or no findings as the source states them, for the method shown. Binding can be weak; no strength is given.

This assay has as its target activated αllbβ3 purified from human platelets by RGD affinity chromatography (human). In words: RGD affinity chromatography of platelet octylglucoside extract.

Consider GRGDSPK (coupled to Sepharose 4B) [GRGDSPK-coupled Sepharose 4B], for which the binding result is “binds”.
